Test results from the supplement of paper PMC8728848.
Some of the results follow.

Columns and labels:
Assay in all cases: glycan array binding signal (z-score within array); higher = stronger binding
Settings in all cases: glycan notation: IUPAC condensed, linker removed
[1] = biological target: Gal(a1-3)Gal(b1-4)GlcNAc(b1-3)GalNAc
Outline: (§1)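 Negative Z-scores can be read as non-binding. The Z-score is calculated within each array and then averaged across arrays of one protein sequence at different concentrations or buffers and across linkers. Arrays, 3228 in all, were curated from the Consortium for Functional Glycomics database and kept only where the protein sequence was available.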

[2] = biological target: Gal(a1-3)Gal(b1-4)[Fuc(a1-3)]GlcNAc
Outline: as §1

[3] = biological target: Gal(a1-3)Gal(b1-4)[Fuc(a1-3)]GlcNAc(b1-2)Man(a1-3)[Gal(a1-3)Gal(b1-4)[Fuc(a1-3)]GlcNAc(b1-2)Man(a1-6)]Man(b1-4)GlcNAc(b1-4)GlcNAc
Outline: as §1

Gal(a1-3)GalNAc = biological target: Gal(a1-3)GalNAc
Outline: as §1

[4] = biological target: Gal(a1-3)[Gal(a1-4)]Gal(b1-4)GlcNAc
Outline: as §1

[5] = biological target: Gal(a1-4)Gal(b1-3)GlcNAc(b1-2)Man(a1-3)[Gal(a1-4)Gal(b1-3)GlcNAc(b1-2)Man(a1-6)]Man(b1-4)GlcNAc(b1-4)GlcNAc
Outline: as §1

Gal(a1-4)Gal(b1-4)Glc = biological target: Gal(a1-4)Gal(b1-4)Glc
Outline: as §1

Gal(a1-4)Gal(b1-4)GlcNAc = biological target: Gal(a1-4)Gal(b1-4)GlcNAc
Outline: as §1

[6] = biological target: Gal(a1-4)Gal(b1-4)GlcNAc(b1-2)Man(a1-3)[Gal(a1-4)Gal(b1-4)GlcNAc(b1-2)Man(a1-6)]Man(b1-4)GlcNAc(b1-4)GlcNAc
Outline: as §1

[7] = biological target: Gal(a1-4)Gal(b1-4)GlcNAc(b1-3)Gal(b1-4)Glc
Outline: as §1

Gal(a1-4)GlcNAc = biological target: Gal(a1-4)GlcNAc
Outline: as §1

Gal(a1-6)Glc = biological target: Gal(a1-6)Glc
Outline: as §1

Gal(b1-2)Gal = biological target: Gal(b1-2)Gal
Outline: as §1

Gal(b1-3)Gal = biological target: Gal(b1-3)Gal
Outline: as §1

Gal(b1-3)Gal(b1-4)GlcNAc = biological target: Gal(b1-3)Gal(b1-4)GlcNAc
Outline: as §1

[8] = biological target: Gal(b1-3)Gal(b1-4)GlcNAc(b1-2)Man(a1-3)[Gal(b1-3)Gal(b1-4)GlcNAc(b1-2)Man(a1-6)]Man(b1-4)GlcNAc(b1-4)GlcNAc
Outline: as §1

Gal(b1-3)GalNAc = biological target: Gal(b1-3)GalNAc
Outline: as §1

[9] = biological target: Gal(b1-3)GalNAc(a1-3)[Fuc(a1-2)]Gal(b1-4)Glc
Outline: as §1

[10] = biological target: Gal(b1-3)GalNAc(a1-3)[Fuc(a1-2)]Gal(b1-4)GlcNAc
Outline: as §1

[11] = biological target: Gal(b1-3)GalNAc(b1-3)Gal(a1-4)Gal(b1-4)Glc
Outline: as §1

[12] = biological target: Gal(b1-3)GalNAc(b1-4)Gal(b1-4)Glc
Outline: as §1

[13] = biological target: Gal(b1-3)GalNAc(b1-4)[Neu5Ac(a2-3)]Gal(b1-4)Glc
Outline: as §1

Gal(b1-3)GlcNAc = biological target: Gal(b1-3)GlcNAc
Outline: as §1

[14] = biological target: Gal(b1-3)GlcNAc(a1-6)Gal(b1-4)GlcNAc
Outline: as §1

[15] = biological target: Gal(b1-3)GlcNAc(b1-2)Man(a1-3)[Gal(b1-3)GlcNAc(b1-2)Man(a1-6)]Man(b1-4)GlcNAc(b1-4)GlcNAc
Outline: as §1

[16] = biological target: Gal(b1-3)GlcNAc(b1-2)Man(a1-3)[Gal(b1-3)GlcNAc(b1-2)Man(a1-6)]Man(b1-4)GlcNAc(b1-4)[Fuc(a1-6)]GlcNAc
Outline: as §1

[17] = biological target: Gal(b1-3)GlcNAc(b1-2)[Gal(b1-3)GlcNAc(b1-6)]Man(a1-6)[Gal(b1-3)GlcNAc(b1-2)Man(a1-3)]Man(b1-4)GlcNAc(b1-4)GlcNAc
Outline: as §1

[18] = biological target: Gal(b1-3)GlcNAc(b1-3)Gal(b1-3)GlcNAc
Outline: as §1

[19] = biological target: Gal(b1-3)GlcNAc(b1-3)Gal(b1-4)Glc
Outline: as §1

[20] = biological target: Gal(b1-3)GlcNAc(b1-3)Gal(b1-4)GlcNAc
Outline: as §1

[21] = biological target: Gal(b1-3)GlcNAc(b1-3)Gal(b1-4)GlcNAc(b1-6)[Gal(b1-3)GlcNAc(b1-3)]Gal(b1-4)Glc
Outline: as §1

[22] = biological target: Gal(b1-3)GlcNAc(b1-3)Gal(b1-4)[Fuc(a1-3)]GlcNAc(b1-6)[Gal(b1-3)GlcNAc(b1-3)]Gal(b1-4)Glc
Outline: as §1

[23] = biological target: Gal(b1-3)GlcNAc(b1-3)GalNAc
Outline: as §1

[24] = biological target: Gal(b1-3)GlcNAc(b1-6)Gal(b1-4)GlcNAc
Outline: as §1

[25] = biological target: Gal(b1-3)[Fuc(a1-4)]GlcNAc
Outline: as §1

[26] = biological target: Gal(b1-3)[Fuc(a1-4)]GlcNAc(b1-2)Man(a1-3)[Gal(b1-3)[Fuc(a1-4)]GlcNAc(b1-2)Man(a1-6)]Man(b1-4)GlcNAc(b1-4)GlcNAc
Outline: as §1

[27] = biological target: Gal(b1-3)[Fuc(a1-4)]GlcNAc(b1-2)Man(a1-3)[Gal(b1-3)[Fuc(a1-4)]GlcNAc(b1-2)Man(a1-6)]Man(b1-4)GlcNAc(b1-4)[Fuc(a1-6)]GlcNAc
Outline: as §1

[28] = biological target: Gal(b1-3)[Fuc(a1-4)]GlcNAc(b1-3)Gal(b1-3)[Fuc(a1-4)]GlcNAc
Outline: as §1

B1: CD72 ectodomain (Homo sapiens), P21854 (protein)
chain: RYLQVSQQLQQTNRVLEVTNSSLRQQLRLKITQLGQSAEDLQGSRRELAQSQEALQVEQRAHQAAEGQLQACQADRQKTKETLQSEEQQRRALEQKLSNMENRLKPFFTCGSADTCCPSGWIMHQKSCFYISLTSKNWQESQKQCETLSSKLATFSEIYPQSHSYYFLNSLLPNGGSGNSYWTGLSSNKDWKLTDDTQRTRTYAQSSKCNKVHKTWSWWTLESESCRSSLPYICEMTAFRFPD
For B1, which “glycan array binding signal (z-score)” value [1] is on record?
The value was -1.69.

And the “glycan array binding signal (z-score)” value [2]?
The value was 1.45.

What about the “glycan array binding signal (z-score)” value [3] of the same binder?
Its value is 1.57.

What about the “glycan array binding signal (z-score)” value (Gal(a1-3)GalNAc) of the same binder?
The value was -1.09.

What about the “glycan array binding signal (z-score)” value [4] of the same binder?
Its value is -0.645.

What about the “glycan array binding signal (z-score)” value [5] of the same binder?
The value was 0.548.

And the “glycan array binding signal (z-score)” value (Gal(a1-4)Gal(b1-4)Glc)?
Its value is -0.318.

And the “glycan array binding signal (z-score)” value (Gal(a1-4)Gal(b1-4)GlcNAc)?
Its value is 1.17.

And the “glycan array binding signal (z-score)” value [6]?
Its value is 0.8.

What about the “glycan array binding signal (z-score)” value [7] of the same binder?
Its value is 0.631.

What about the “glycan array binding signal (z-score)” value (Gal(a1-4)GlcNAc) of the same binder?
Its value is 1.25.

And the “glycan array binding signal (z-score)” value (Gal(a1-6)Glc)?
Its value is -0.172.

What about the “glycan array binding signal (z-score)” value (Gal(b1-2)Gal) of the same binder?
Its value is -0.773.

And the “glycan array binding signal (z-score)” value (Gal(b1-3)Gal)?
Its value is -1.42.

What about the “glycan array binding signal (z-score)” value (Gal(b1-3)Gal(b1-4)GlcNAc) of the same binder?
Its value is -0.207.

And the “glycan array binding signal (z-score)” value [8]?
Its value is -0.149.

What about the “glycan array binding signal (z-score)” value (Gal(b1-3)GalNAc) of the same binder?
The value was -0.093.

What about the “glycan array binding signal (z-score)” value [9] of the same binder?
The value was 0.456.

What about the “glycan array binding signal (z-score)” value [10] of the same binder?
Its value is 0.945.

And the “glycan array binding signal (z-score)” value [11]?
The value was -0.019.

And the “glycan array binding signal (z-score)” value [12]?
Its value is -1.01.

And the “glycan array binding signal (z-score)” value [13]?
The value was 1.16.

And the “glycan array binding signal (z-score)” value (Gal(b1-3)GlcNAc)?
Its value is -0.033.

And the “glycan array binding signal (z-score)” value [14]?
The value was 0.263.

And the “glycan array binding signal (z-score)” value [15]?
The value was 1.6.

What about the “glycan array binding signal (z-score)” value [16] of the same binder?
Its value is -0.071.

What about the “glycan array binding signal (z-score)” value [17] of the same binder?
Its value is 1.2.

And the “glycan array binding signal (z-score)” value [18]?
Its value is -0.958.

What about the “glycan array binding signal (z-score)” value [19] of the same binder?
Its value is -0.251.

And the “glycan array binding signal (z-score)” value [20]?
Its value is -0.634.

And the “glycan array binding signal (z-score)” value [21]?
Its value is 0.052.

What about the “glycan array binding signal (z-score)” value [22] of the same binder?
Its value is 2.26.

And the “glycan array binding signal (z-score)” value [23]?
Its value is -0.526.

What about the “glycan array binding signal (z-score)” value [24] of the same binder?
The value was -0.876.

And the “glycan array binding signal (z-score)” value [25]?
The value was -1.61.

And the “glycan array binding signal (z-score)” value [26]?
The value was 0.257.

And the “glycan array binding signal (z-score)” value [27]?
The value was -0.57.

And the “glycan array binding signal (z-score)” value [28]?
The value was 0.642.
